Measured values taken from patent US8324282B2, “Alkylating agent combinations in the treatment of cancer” (Case Western Reserve University, priority 1999, dated 2012).
For some of these results: At least one compound was matched to its structure with a doubt left. Some results were stated once for a whole list of compounds, not compound by compound.

Legend:
HCT116 cells [1] = test: Median effect analysis (combination index), HCT116; assay type: cell-based, human; conditions: TMZ:MX 1:20, TMZ:PD128763 1:0.83, 2 hr, p<0.001
SW480 cells [2] = test: Median effect analysis (combination index), SW480; conditions: p<0.001
[3] = system: PARP cleavage in SW480 cells; test: Western blotting for PARP cleavage, SW480; assay type: cell-based, human; conditions: 3 days
[4] = system: PARP cleavage in HCT116 cells; test: Western blotting for PARP cleavage, HCT116; assay type: cell-based, human; conditions: 3 days
HCT116 cells [5] = test: Flow cytometry cell cycle distribution and apoptosis, HCT116; assay type: cell-based, human
[6] = system: cells defective in either MLH1 or GTBP; conditions: even after inhibition of AGT by BG; cited from earlier work
SW480 cells [7] = test: Colony survival assay, SW480; assay type: cell-based, human; conditions: modifier(s) plus TMZ vs TMZ alone
From the text: (§1) Chemicals and Reagents. BG was generously provided by Dr. Robert Moschel (Frederick Cancer Research and Development Center, National Cancer Institute). Stock solution was made in dimethylsulfoxide. TMZ and BCNU were obtained from the Drug Synthesis and Chemistry Branch, Drug Therapeutic Program, National Cancer Center Institute. PD128763 was a gift from Park-Davis Pharmaceutical Division. 6-AN, 3-AB, MX and methylmethane sulfonate (MMS) were purchased from Sigma (ST. Louis, Mo.). Stock solutions of PD128763, 3-AB and 6-AN were prepared by dissolving in dimethylsulfoxide and added to cell culture at a final concentration of <1% DMSO, when cells were treated with these compounds. MX was dissolved in sterilized water (pH 7.0). All stock solutions were kept at −20° C. BCNU was prepared fresh in 0.5 ml of 100% ethanol, diluted in PBS, and used with in 10 min. Colony Survival Assay. SW480 cells were obtained from the ATCC. HCT116 cells were obtained from R. Boland, University of Michigan Medical Center. All cell lines were cultured in appropriate growth medium.
(§2) Cells (2000/dish) were plated, adhered for 18 hrs and treated with TMZ or
(§3) MMS plus or minus modifiers such as […], MX, 6-AN, 3-AB or PD128763, according to experimental protocol. After treatment, cells were washed and fresh medium was replaced. […]

HCT116 cells [8] = test: Colony survival assay, HCT116; assay type: cell-based, human; conditions: modifier plus TMZ vs TMZ alone
From the text: as §1, §2, §3

Compound: COc1cccc2c1CCNC2=O [PD128763, 3,4-dihydro-5-methoxyisoquinolin-1(2H)-one]
- combination index (CI) with TMZ (HCT116 cells [1]): < 1
- combination index (CI) with TMZ (SW480 cells [2]): < 1

Compound: Cn1nnc2c(C(N)=O)ncn2c1=O [TMZ, temozolomide]
- PARP cleavage [3]: observed
- PARP cleavage [4]: not seen
- effect on cell cycle distribution (HCT116 cells [5]): normal cell cycle distribution
- resistance to TMZ due to MMR deficiency [6]: 35-60 fold

Compound: NC(=O)c1cccc(N)c1 [Compound 3-AB, 3-aminobenzamide]
- DMF (IC50 for TMZ alone/IC50 for TMZ plus modifier(s)) (SW480 cells [7]): 3-4 fold
- DMF (IC50 for TMZ alone/IC50 for TMZ plus modifier) (HCT116 cells [8]): 3-4 fold

Compound: CON [MX, methoxyamine]
- combination index (CI) with TMZ (HCT116 cells [1]): < 1
- combination index (CI) with TMZ (SW480 cells [2]): < 1
